Data reported in PubChem BioAssay (NCATS).
The list shows a part of the results. The main result of the screen is listed elsewhere. These columns were measured beside it and carry no call. Most of these compounds were active or inconclusive in the main read-out, so they are no random draw. Words in brackets tell the shape of the fitted curve; partial curves, single points and poor fits give uncertain potencies.

Test: qHTS for identification of novel therapeutic agents for treatment of microphthalmiaassociated transcription factor (MiT) renal cell carcinoma (RCC) (AID 1963991)
Details: CellTiter-Glo, 48 h; for z-score: stronger effect = lower value
Text: PI: Marston Linehan Ph.D.
Urologic Oncology Branch, Center for Cancer Research (CCR)
National Cancer Institute (NCI), National Institute of Health (NIH), Bethesda, Maryland
MiT-Renal Cell Carcinoma (RCC) is characterized by genomic translocations involving microphthalmia-associated transcription factor (MiT) family members TFE3, TFEB, or MITF. MiT-RCC represents a specific subtype of sporadic RCC that is predominantly seen in young patients and can present with heterogeneous histological features making diagnosis challenging. Moreover, the disease biology of this aggressive cancer is poorly understood and there is no accepted standard of care therapy for patients with advanced disease. Tumor-derived cell lines have been established from human TFE3-RCC providing useful models for preclinical studies. TFE3-RCC tumor derived cell lines and their tissues of origin were characterized by IHC and gene expression analyses. An unbiased high-throughput drug screen was performed to identify novel therapeutic agents for treatment of MiT-RCC. Potential therapeutic candidates were validated in in vitro and in vivo preclinical studies. Mechanistic assays were conducted to confirm the on-target effects of drugs. The results of a high-throughput small molecule drug screen utilizing three TFE3-RCC tumor-derived cell lines identified five classes of agents with potential pharmacological efficacy, including inhibitors of phosphoinositide-3-kinase (PI3K) and mechanistic target of rapamycin (mTOR), and several additional agents, including the transcription inhibitor Mithramycin A. Upregulation of the cell surface marker GPNMB, a specific MiT transcriptional target, was confirmed in TFE3-RCC and evaluated as a therapeutic target using the GPNMB-targeted antibody-drug conjugate CDX-011. […] The results of the high-throughput drug screen and validation studies in TFE3-RCC tumor-derived cell lines have provided in vitro and in vivo preclinical data supporting the efficacy of the PI3K/mTOR inhibitor.
SEQUENCE No. (e.g., 1, 2, 3, etc.); […] (e.g., Cells, Incubation, Reagent, etc.); VALUE; DESCRIPTION.
1; Cells; 3 uL; white, solid-bottom Grenier assay plate.
2; Compounds; 23 nL; Kalypsis pin-tool (Wako USA).
3; Incubation; 48 hr; 37 C, 5% CO2, 95% humidity.
4; Reagent; 3 uL; CellTiter-Glo reagent (Promega).
5; Incubation; 15 min; room temperature.
6; Detection; Luminescence; ViewLux plate reader (PerkinElmer).
NOTES (numbers refer to Sequence numbers above)
1. Quantitative high-throughput screening (qHTS) of 1912 pharmacologically defined small molecule compounds was conducted on three TFE3-fusion cell lines bearing three different fusion partners (UOK109, UOK124, UOK145). Briefly, 500 cells in complete growth media were plated into white, solid-bottom, 1536-well tissue culture treated plates (Grenier Cat. 789173-F) using a Multidrop Combi cassette dispenser.
2. Twenty-three nanoliter of 1912 pharmacologically defined small molecule compounds of the NCATS Mechanism Interrogation PlatE (MIPE) version 4.0 were added to each assay plate using a Pintool Dispenser (Wako) equipped with 1536 pin head.
3. Plates were covered with stainless steel gasketed lids and incubated for 48 hours at standard cell culture conditions.
4. Viability was assessed by adding 3uL of CellTiter-Glo detection reagent (Promega).
5. Plates were covered with gasket lids and incubated for 15 minutes at room temperature.
6. Luminescence was measured on a ViewLux plate reader (PerkinElmer). Post-screen data processing used DMSO controls as 100% viability and empty wells as 0% viability and dose response curve fitting was done for all 11 concentrations for each compound.

[1] = TFE3-RCC UOK109 viability, measured here: UOK109 Z-AUC
[2] = TFE3-RCC viability, measured here: UOK124 Z-AUC
[3] = TFE3-RCC viability, measured here: UOK124 cell viability
[4] = TFE3-RCC viability, measured here: UOK145 Z-AUC
[5] = TFE3-RCC viability, measured here: UOK145 cell viability

Structure (SMILES) | z-score [1] | z-score [2] | AC50 [3] | z-score [4] | AC50 [5]
C[C@]12CCC(=O)C=C1CC[C@@H]1[C@H]3CC[C@](C)(O)[C@@]3(C)CC[C@@H]12 | 1.18 | 0.907 | 27 µM [falling, partial curve, poor fit] | 2.33 | 54 µM [falling, single point]
O=C(O)C(=O)c1cn(Cc2ccccc2)c2ccc(-c3ccc(OC(F)(F)F)cc3)cc12 | 0.669 | 0.25 | 6.62 µM [falling, partial curve, poor fit] | 0.729 | 
COc1ccc(N(C(=O)Oc2c(C)cccc2C)c2ccnc(Nc3ccc(N4CCN(C)CC4)cc3)n2)c(OC)c1 | -0.223 | -0.229 | 1.66 µM [falling, partial curve, poor fit] | -0.62 | 3.72 µM [falling, partial curve]
C[C@@H]1[C@@H](CC(C[C@H]2O[C@@H]3O[C@]4(C)CC[C@@H]5[C@H](C)CC[C@@H]([C@H]2C)[C@@]35OO4)C[S+](=O)([O-])c2ccc(COC(=O)N(C)C)cc2)O[C@@H]2O[C@]3(C)CC[C@H]4[C@H](C)CC[C@@H]1[C@@]24OO3 (some centres not stated) | -0.246 | -0.644 | 0.526 µM [falling, full curve] | -0.159 | 1.48 µM [falling, full curve]
C=C[C@@H]1CN2CCC1C[C@H]2[C@H](O)c1ccnc2ccccc12 (some centres not stated) | 0.472 | 0.168 | 37.2 µM [falling, single point] | -0.216 | 29.6 µM [falling, single point]
Cc1[nH]nc2ccc(-c3cncc(OC[C@@H](N)Cc4c[nH]c5ccccc45)c3)cc12 | 0.00898 | 0.134 | 2.35 µM [falling, partial curve] | -0.932 | 0.935 µM [falling, full curve]
O=P1(NCCCl)OCCCN1CCCl (configuration not stated) | 0.568 | 1.16 | 23.5 µM [falling, single point] | -0.0687 | 20.9 µM [falling, partial curve, poor fit]
CC(=O)N(C)c1cccc(-c2ccnc3c(C(=O)c4cccs4)cnn23)c1 | 1.62 | 0.631 |  | 1.61 | 
CO[C@H]1CCC(O[C@H]2C[C@H]([C@]3(C)CC[C@]4(C[C@H](O)[C@@H](C)[C@@H]([C@@H](C)C=C(C)C(=O)[C@H](C)C[C@H](C)C(=O)O)O4)O3)O[C@]3(O[C@@H]([C@H]4O[C@@](O)(CO)[C@H](C)C[C@H]4C)C[C@H]3C)[C@H]2C)O[C@H]1C (some centres not stated) | -0.9 | -1.16 | 0.235 µM [falling, full curve] | -0.208 | 1.48 µM [falling, full curve]

Shown with tabs: part of the list above.
Structure (SMILES)	z-score [1]	z-score [2]	AC50 [3]	z-score [4]	AC50 [5]
O=C(O)C(=O)c1cn(Cc2ccccc2)c2ccc(-c3ccc(OC(F)(F)F)cc3)cc12	0.669	0.25	6.62 µM [falling, partial curve, poor fit]	0.729	
COc1ccc(N(C(=O)Oc2c(C)cccc2C)c2ccnc(Nc3ccc(N4CCN(C)CC4)cc3)n2)c(OC)c1	-0.223	-0.229	1.66 µM [falling, partial curve, poor fit]	-0.62	3.72 µM [falling, partial curve]
